Laboratory results as given in publication PMC12574921.
Results are given in words; binding and its absence hold for the method and conditions named. In cells and extracts the contact can be indirect. These calls come from enrichment with a bait or labelling near it, and not all partners need be listed. For part of these data: No binding means not detected with the bait. For part of these data: Where a sequence is shown, tags or fusion partners need not be part of it.

Sequences of proteins named here, by UniProt entry; tags and fusion partners are left off. A change or cut given only in a name is not applied to a line headed by its entry.
UniProt Q9VP77: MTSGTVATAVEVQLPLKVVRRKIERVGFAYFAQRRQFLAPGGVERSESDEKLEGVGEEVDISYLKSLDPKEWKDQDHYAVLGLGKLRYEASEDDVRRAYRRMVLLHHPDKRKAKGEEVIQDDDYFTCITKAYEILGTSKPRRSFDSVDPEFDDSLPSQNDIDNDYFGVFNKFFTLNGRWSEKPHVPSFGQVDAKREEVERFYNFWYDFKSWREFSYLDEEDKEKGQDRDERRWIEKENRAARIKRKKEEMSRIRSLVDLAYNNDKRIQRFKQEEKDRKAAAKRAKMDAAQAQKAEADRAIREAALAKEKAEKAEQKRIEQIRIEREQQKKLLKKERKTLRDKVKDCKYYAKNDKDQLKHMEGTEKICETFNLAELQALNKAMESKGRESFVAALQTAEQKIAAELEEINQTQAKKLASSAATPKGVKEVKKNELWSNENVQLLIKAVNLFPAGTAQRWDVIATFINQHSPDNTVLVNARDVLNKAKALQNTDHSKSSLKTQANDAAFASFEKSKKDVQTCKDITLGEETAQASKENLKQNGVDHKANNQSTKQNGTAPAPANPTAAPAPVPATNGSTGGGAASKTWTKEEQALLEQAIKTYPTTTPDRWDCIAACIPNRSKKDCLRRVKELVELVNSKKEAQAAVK
UniProt Q92841: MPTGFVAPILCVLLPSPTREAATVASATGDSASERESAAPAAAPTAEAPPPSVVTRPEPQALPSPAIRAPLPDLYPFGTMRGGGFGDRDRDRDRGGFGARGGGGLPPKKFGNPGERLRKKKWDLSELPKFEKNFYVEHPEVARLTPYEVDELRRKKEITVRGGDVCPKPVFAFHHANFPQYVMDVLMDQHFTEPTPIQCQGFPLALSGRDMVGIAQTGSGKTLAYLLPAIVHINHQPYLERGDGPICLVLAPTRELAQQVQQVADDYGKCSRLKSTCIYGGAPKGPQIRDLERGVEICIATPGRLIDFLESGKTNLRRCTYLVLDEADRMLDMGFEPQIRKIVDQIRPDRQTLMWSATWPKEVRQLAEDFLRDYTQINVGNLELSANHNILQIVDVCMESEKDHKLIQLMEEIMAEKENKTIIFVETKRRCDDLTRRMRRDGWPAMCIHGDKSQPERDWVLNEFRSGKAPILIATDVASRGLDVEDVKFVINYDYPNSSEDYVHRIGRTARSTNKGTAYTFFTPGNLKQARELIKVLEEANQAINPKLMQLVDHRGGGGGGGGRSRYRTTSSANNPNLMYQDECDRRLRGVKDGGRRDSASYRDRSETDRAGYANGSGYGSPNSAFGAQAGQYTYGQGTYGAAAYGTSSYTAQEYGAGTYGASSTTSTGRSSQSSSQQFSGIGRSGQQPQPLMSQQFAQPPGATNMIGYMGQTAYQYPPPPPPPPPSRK
UniProt P51114: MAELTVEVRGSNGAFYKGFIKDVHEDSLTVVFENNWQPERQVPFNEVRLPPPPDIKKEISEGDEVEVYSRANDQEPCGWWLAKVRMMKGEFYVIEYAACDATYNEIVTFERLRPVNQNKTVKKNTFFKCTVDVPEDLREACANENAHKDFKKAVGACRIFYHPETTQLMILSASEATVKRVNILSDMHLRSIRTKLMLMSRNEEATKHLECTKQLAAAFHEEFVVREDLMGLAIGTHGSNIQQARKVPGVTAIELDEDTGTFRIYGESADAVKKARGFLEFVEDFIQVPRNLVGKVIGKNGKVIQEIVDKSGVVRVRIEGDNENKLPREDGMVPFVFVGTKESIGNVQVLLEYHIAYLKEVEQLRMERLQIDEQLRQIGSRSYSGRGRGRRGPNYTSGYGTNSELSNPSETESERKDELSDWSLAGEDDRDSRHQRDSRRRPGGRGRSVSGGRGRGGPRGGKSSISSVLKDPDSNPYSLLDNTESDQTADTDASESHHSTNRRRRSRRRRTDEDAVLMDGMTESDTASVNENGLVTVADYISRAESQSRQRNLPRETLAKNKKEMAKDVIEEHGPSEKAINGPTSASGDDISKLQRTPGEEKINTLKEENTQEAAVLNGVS
UniProt P51116: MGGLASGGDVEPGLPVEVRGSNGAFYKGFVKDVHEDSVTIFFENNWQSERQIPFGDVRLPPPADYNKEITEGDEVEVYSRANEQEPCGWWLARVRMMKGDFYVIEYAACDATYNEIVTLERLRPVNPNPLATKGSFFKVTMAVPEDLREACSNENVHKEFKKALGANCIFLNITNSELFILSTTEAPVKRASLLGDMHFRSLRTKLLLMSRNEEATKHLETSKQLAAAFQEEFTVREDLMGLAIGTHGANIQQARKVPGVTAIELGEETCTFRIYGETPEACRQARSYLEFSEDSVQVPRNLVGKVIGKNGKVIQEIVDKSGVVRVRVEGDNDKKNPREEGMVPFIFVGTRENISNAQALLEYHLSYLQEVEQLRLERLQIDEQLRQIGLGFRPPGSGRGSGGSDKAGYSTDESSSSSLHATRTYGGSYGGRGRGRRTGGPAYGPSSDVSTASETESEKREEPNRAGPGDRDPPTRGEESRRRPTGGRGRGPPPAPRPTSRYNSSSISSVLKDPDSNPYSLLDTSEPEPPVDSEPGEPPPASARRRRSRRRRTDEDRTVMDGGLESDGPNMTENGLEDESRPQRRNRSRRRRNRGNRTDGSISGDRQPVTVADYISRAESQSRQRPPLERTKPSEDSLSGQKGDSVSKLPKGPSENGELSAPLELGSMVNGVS
UniProt P17844: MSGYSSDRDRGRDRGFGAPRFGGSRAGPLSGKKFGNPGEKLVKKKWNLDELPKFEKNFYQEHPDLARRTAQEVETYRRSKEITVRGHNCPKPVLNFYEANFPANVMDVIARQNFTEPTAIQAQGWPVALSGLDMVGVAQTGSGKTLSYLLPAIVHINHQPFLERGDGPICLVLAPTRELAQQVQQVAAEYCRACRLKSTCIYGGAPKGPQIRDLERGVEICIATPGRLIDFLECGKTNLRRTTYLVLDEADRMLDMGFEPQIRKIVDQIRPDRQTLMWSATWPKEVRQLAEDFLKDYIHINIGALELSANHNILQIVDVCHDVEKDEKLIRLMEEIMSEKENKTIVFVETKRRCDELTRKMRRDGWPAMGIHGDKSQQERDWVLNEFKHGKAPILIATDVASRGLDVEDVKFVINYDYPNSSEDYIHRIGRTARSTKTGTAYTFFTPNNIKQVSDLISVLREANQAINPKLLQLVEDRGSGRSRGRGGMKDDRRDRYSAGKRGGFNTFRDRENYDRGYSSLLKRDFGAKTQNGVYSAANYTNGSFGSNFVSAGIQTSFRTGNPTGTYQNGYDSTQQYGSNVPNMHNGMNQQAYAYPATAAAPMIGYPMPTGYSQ
UniProt Q9NR30: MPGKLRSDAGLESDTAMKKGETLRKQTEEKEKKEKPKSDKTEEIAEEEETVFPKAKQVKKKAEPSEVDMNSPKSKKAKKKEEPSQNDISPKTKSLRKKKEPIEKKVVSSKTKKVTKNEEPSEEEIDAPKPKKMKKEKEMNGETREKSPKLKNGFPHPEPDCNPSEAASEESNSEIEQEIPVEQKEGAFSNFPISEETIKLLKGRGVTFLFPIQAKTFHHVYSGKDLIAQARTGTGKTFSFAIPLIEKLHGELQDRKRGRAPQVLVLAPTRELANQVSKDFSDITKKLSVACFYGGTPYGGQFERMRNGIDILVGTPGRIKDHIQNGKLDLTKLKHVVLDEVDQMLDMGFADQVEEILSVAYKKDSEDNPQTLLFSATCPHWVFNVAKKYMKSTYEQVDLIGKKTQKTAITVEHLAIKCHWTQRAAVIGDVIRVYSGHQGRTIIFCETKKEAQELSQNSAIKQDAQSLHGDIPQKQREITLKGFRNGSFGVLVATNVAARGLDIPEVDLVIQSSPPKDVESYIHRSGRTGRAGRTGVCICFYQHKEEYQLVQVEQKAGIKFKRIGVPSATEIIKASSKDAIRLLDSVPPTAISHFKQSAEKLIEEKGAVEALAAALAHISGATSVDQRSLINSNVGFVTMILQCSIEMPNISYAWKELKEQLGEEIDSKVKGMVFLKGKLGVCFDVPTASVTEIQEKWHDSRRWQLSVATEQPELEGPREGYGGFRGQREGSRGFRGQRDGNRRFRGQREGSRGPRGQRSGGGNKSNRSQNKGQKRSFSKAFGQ
UniProt Q9H7E2: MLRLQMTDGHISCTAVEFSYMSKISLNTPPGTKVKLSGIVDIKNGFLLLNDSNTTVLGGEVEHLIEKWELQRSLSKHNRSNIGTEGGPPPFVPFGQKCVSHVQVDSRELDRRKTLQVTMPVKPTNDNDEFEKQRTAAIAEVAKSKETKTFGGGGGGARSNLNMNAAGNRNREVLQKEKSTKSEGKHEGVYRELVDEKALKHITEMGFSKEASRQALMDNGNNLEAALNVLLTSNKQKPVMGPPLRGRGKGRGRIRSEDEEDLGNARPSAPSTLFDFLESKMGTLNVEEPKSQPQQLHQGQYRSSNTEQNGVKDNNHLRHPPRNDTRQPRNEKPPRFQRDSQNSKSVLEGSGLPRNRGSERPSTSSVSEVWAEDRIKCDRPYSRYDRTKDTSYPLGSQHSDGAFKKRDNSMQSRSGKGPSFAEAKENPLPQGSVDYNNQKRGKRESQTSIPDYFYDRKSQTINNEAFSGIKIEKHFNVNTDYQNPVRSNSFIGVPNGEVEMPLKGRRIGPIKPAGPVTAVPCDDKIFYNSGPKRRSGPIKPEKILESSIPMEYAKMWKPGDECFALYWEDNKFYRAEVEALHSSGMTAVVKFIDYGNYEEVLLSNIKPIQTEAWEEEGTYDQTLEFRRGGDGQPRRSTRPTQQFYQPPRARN
UniProt Q9VUH8: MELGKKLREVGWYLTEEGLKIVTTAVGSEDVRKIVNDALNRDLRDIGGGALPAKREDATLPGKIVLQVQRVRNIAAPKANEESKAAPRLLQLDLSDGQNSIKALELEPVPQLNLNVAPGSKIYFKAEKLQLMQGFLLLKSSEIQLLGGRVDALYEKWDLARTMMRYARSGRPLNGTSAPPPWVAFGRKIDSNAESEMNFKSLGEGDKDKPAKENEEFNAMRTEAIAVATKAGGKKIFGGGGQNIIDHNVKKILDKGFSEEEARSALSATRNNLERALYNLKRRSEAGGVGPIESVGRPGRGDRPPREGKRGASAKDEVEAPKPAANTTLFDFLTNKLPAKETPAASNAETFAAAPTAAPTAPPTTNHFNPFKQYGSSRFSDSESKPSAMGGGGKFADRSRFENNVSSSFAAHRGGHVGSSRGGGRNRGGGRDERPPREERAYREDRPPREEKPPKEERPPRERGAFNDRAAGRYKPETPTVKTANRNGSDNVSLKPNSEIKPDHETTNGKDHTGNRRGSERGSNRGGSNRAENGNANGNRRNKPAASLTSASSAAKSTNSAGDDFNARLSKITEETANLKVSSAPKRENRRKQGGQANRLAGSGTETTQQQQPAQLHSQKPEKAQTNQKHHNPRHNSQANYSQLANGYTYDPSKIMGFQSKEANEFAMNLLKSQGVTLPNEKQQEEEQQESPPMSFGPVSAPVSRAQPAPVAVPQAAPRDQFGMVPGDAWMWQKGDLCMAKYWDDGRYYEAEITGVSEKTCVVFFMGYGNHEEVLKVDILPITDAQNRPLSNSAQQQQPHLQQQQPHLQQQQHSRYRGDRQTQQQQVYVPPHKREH
UniProt Q9V426: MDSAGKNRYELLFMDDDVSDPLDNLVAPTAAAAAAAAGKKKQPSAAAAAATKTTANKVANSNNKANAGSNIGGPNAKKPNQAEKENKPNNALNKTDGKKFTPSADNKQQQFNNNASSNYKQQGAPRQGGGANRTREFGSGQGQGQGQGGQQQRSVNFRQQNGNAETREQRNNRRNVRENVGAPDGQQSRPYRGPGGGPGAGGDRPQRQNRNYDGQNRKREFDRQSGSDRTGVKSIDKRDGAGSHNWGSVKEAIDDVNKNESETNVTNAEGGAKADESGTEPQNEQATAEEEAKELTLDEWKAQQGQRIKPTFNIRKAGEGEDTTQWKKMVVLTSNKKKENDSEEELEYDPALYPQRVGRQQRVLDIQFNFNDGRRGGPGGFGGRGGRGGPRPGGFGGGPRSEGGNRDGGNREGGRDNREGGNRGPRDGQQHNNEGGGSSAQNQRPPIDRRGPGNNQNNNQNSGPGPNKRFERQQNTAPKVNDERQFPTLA

T1: FLAG-ZRF1 (human) (UniProt Q99543)
T1 sequence: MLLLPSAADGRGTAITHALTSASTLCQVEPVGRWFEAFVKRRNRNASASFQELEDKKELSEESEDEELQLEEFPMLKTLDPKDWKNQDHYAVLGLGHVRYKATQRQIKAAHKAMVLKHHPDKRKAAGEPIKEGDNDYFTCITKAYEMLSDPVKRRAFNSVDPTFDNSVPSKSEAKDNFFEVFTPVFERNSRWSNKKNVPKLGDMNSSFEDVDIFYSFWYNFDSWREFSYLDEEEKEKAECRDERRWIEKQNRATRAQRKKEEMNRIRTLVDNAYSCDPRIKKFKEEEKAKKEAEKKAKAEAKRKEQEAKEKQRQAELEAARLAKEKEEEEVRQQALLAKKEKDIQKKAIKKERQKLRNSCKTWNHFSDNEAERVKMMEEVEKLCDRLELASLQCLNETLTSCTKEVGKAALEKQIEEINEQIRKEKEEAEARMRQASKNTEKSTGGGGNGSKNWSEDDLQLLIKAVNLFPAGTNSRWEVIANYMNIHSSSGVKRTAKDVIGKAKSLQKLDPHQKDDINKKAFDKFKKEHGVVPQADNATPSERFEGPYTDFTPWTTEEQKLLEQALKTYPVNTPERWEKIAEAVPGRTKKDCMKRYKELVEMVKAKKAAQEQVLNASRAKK

T2: ZRF1-GFP (human) (UniProt Q99543)
T2 sequence: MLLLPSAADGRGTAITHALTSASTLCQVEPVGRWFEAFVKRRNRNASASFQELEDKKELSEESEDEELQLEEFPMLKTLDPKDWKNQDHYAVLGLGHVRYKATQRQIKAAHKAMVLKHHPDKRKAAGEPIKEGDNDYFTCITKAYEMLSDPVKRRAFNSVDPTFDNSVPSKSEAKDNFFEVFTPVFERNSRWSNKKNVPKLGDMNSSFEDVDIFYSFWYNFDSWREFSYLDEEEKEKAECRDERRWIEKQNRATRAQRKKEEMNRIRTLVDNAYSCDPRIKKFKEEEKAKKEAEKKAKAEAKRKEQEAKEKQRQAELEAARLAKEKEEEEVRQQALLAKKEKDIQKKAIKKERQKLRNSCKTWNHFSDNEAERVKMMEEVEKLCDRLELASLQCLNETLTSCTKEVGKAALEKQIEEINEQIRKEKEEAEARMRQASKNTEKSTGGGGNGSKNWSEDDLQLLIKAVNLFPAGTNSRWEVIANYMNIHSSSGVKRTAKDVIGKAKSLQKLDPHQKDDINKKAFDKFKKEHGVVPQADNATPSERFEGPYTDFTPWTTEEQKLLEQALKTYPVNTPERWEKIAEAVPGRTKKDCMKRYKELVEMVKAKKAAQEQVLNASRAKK


How the values were obtained:
FLAG-ZRF1 (human) = target: T1, FLAG-ZRF1 (human); assay: affinity purification with mass spectrometry; HEK293T cells transfected with FLAG-ZRF1 or ZRF1-GFP (controls FLAG-mCherry, mCherry-GFP); IP with α-FLAG or α-GFP agarose/magnetic beads, mild detergent conditions
ZRF1-GFP (human) = target: T2, ZRF1-GFP (human); assay: as above
GFP-Zrf1 (Drosophila) = GFP-Zrf1 (Drosophila) (UniProt Q9VP77); assay: affinity purification with mass spectrometry; GFP-Zrf1 immunoprecipitated with GFP-trap beads from transfected S2R+ cells under mild detergent conditions (NP40); GFP alone as control; three biological replicates

Row | Molecule | binding (FLAG-ZRF1 (human)) | binding (ZRF1-GFP (human)) | binding (GFP-Zrf1 (Drosophila))
1 | DDX17 (endogenous) (from UniProt Q92841 1-729) | binds | binds | –
2 | FXR1 (endogenous) (from UniProt P51114 1-621) | binds | binds | –
3 | FXR2 (endogenous) (from UniProt P51116 1-673) | binds | binds | –
4 | AGO2 (endogenous) (protein, UniProt Q9VUQ5 1-1214) MGKKDKNKKGGQDSAAAPQPQQQQKQQQQRQQQPQQLQQPQQLQQPQQLQQPQQQQQQQPHQQQQQSSRQQPSTSSGGSRASGFQQGGQQQKSQDAEGWTAQKKQGKQQVQGWTKQGQQGGHQQGRQGQDGGYQQRPPGQQQGGHQQGRQGQEGGYQQRPPGQQQGGHQQGRQGQEGGYQQRPSGQQQGGHQQGRQGQEGGYQQRPPGQQQGGHQQGRQGQEGGYQQRPSGQQQGGHQQGRQGQEGGYQQRPPGQQQGGHQQGRQGQEGGYQQRPPGQQQGGHEQGRQGQEGGYQQRPSGQQQGGHQQGRQGQEGGYQQRPSGQQQGGHQQGRQGQEGGYQQRPSGQQQGGHQQGRQGQEGGYQQRPPGQQPNQTQSQGQYQSRGPPQQQQAAPLPLPPQPAGSIKRGTIGKPGQVGINYLDLDLSKMPSVAYHYDVKIMPERPKKFYRQAFEQFRVDQLGGAVLAYDGKASCYSVDKLPLNSQNPEVTVTDRNGRTLRYTIEIKETGDSTIDLKSLTTYMNDRIFDKPMRAMQCVEVVLASPCHNKAIRVGRSFFKMSDPNNRHELDDGYEALVGLYQAFMLGDRPFLNVDISHKSFPISMPMIEYLERFSLKAKINNTTNLDYSRRFLEPFLRGINVVYTPPQSFQSAPRVYRVNGLSRAPASSETFEHDGKKVTIASYFHSRNYPLKFPQLHCLNVGSSIKSILLPIELCSIEEGQALNRKDGATQVANMIKYAATSTNVRKRKIMNLLQYFQHNLDPTISRFGIRIANDFIVVSTRVLSPPQVEYHSKRFTMVKNGSWRMDGMKFLEPKPKAHKCAVLYCDPRSGRKMNYTQLNDFGNLIISQGKAVNISLDSDVTYRPFTDDERSLDTIFADLKRSQHDLAIVIIPQFRISYDTIKQKAELQHGILTQCIKQFTVERKCNNQTIGNILLKINSKLNGINHKIKDDPRLPMMKNTMYIGADVTHPSPDQREIPSVVGVAASHDPYGASYNMQYRLQRGALEEIEDMFSITLEHLRVYKEYRNAYPDHIIYYRDGVSDGQFPKIKNEELRCIKQACDKVGCKPKICCVIVVKRHHTRFFPSGDVTTSNKFNNVDPGTVVDRTIVHPNEMQFFMVSHQAIQGTAKPTRYNVIENTGNLDIDLLQQLTYNLCHMFPRCNRSVSYPAPAYLAHLVAARGRVYLTGTNRFLDLKKEYAKRTIVPEFMKKNPMYFV | – | – | binds

Continued, values first:

Row | binding (FLAG-ZRF1 (human)) | binding (ZRF1-GFP (human)) | binding (GFP-Zrf1 (Drosophila)) | Molecule
5 | binds | binds | – | DDX5 (endogenous) (from UniProt P17844 1-614)
6 | binds | binds | – | DDX21 (endogenous) (from UniProt Q9NR30 1-783)
7 | no binding | no binding | – | TDRD3 (endogenous) (from UniProt Q9H7E2 1-651)
8 | – | – | binds | Tdrd3 (endogenous) (from UniProt Q9VUH8)
9 | – | – | binds | Vig (endogenous) (from UniProt Q9V426)
